US9457057B2, “Methods for the prevention and treatment of burn injuries and secondary complications” (The General Hospital Corporation, priority 2009, dated 2016)
Values joined by “and” are separate entries in the source; they are usually repeats but may differ in a detail not shown here. Equal values may be shown once.

Tests used:
[1] = system: ATP synthesis rate (Pi→γATP) in hindlimb skeletal muscle; assay: In vivo 31P-NMR saturation transfer, ATP synthesis rate (Pi→γATP), mouse burn model (Examples 8 and 10)
Description: (§1) Materials and Methods. Male 6-week-old CD1 mice weighing 20-25 g were anesthetized by intraperitoneal (i.p.) injection of 40 mg/kg pentobarbital sodium. The left hind limb of all mice in all groups was shaved. Each burned mouse was subjected to a nonlethal scald injury of 3-5% total body surface area (TBSA) by immersing its left hind limb in 90° C. water for 3 sec.
(§2) NMR spectroscopy is described in detail in Padfield, et al., Proc Natl Acad Sci USA 102: 5368-5373 (2005). Briefly, mice were randomized into burn, burn+SS-31 peptide, control, and control+peptide groups. The SS-31 peptide (3 mg/kg) was injected intraperitoneally at 30 min prior to burn and a second injection immediately after the burn. NMR experiments were performed in a horizontal bore magnet (proton frequency 400 MHz, 21 cm diameter, Magnex Scientific) using a Bruker Avance console. A 90° pulse was optimized for detection of phosphorus spectra (repetition time 2 s, 400 averages, 4K data points). Saturation 90°-selective pulse trains (duration 36.534 ms, bandwidth 75 Hz) followed by crushing gradients were used to saturate the γ-ATP peak. The same saturation pulse train was also applied downfield of the inorganic phosphate (Pi) resonance, symmetrically to the γ-ATP resonance. T1 relaxation times of Pi and phosphocreatine (PCr) were measured using an inversion recovery pulse sequence in the presence of γ-ATP saturation. An adiabatic pulse (400 scans, sweep with 10 KHz, 4K data) was used to invert Pi and PCr, with an inversion time between 152 ms and 7651 ms.
Male 6-week-old CD1 mice (20-25 g) were anesthetized by intraperitoneal injection of 40 mg/kg pentobarbital sodium and the left hind limb of all mice was shaved. Burn injury was inflicted by a nonlethal scald injury of 3-5% total body surface area by immersing the left hind limb in 90° C. water for 3 sec. Mice were randomized into burn (B), burn+SS-31 (B+P), control (C) and control+SS-31 (C+P) groups. SS-31 (3 mg/kg) was injected intaperitoneally at 30 min before burn and immediately after burn. A separate group of burned animals received only one dose of the SS-31 peptide immediately after burn.
Values are means±SE; ΔM/M0 is the fractional change in Pi magnetization as a result of saturation transfer; T1obs is the observed spin lattice relaxation time of Pi during γATP saturation in seconds; ATP synthesis is calculated as [Pi]×k; [Pi] is the concentration of Pi extrapolated from the baseline NMR spectrum, comparing Pi and γATP peaks and ATP concentration measured with bioluminescence assay; k is calculated as (1/T1obs)×(ΔM/M0); P-values (unpaired Student's t-test) are for comparisons between experimental and control groups; * indicates only one dose of SS-31 peptide (3 mg/kg) was injected to animals immediately after burn.

[2] = system: ATP synthesis rate (reaction PCr → γATP) in hindlimb skeletal muscle; assay: In vivo 31P-NMR saturation transfer, ATP synthesis rate (reaction PCr→γATP), mouse burn model (Example 8)
Description: as §1, §2

[3] = Burn + Peptide (n = 8), 3 mg/kg IP 30 min before burn and immediately after burn, 6 hours after burn
[4] = Burn + Peptide* (n = 8), only one dose 3 mg/kg immediately after burn
[5] = Controls + Peptide (n = 5), unburned CD1 mice, 3 mg/kg IP two injections
[6] = Burn + Peptide (n = 8), 3 mg/kg IP 30 min prior to burn and immediately after the burn

“D-Arg-2′,6′-dimethyltyrosine-Lys-Phe-NH2 [SS-31]” was tested, and the T1obs [1, 3] was 1.33 ± 0.27 s, the “ΔM/M0 (fractional change in Pi magnetization)” value [1, 3] was 0.31 ± 0.06 and the T1obs [1, 4] was 1.33 ± 0.27 s. For the same substance, the “ΔM/M0 (fractional change in Pi magnetization)” value [1, 4] was 0.39 ± 0.07, the T1obs [1, 5] was 1.16 ± 0.14 s and the “ΔM/M0 (fractional change in Pi magnetization)” value ([1]; Controls + Peptide (n = 5), unburned CD1 mice, 3 mg/kg IP two injections, 3 mg/kg) was 0.185 ± 0.02 and 0.15 ± 0.02. For the same substance, the Kf [2, 6] was 0.24 ± 0.05 s⁻¹, the T1obs [2, 6] was 1.33 ± 0.27 s and the ΔM/M0 [2, 6] was 0.31 ± 0.06. For the same substance, the Kf [2, 5] was 0.14 ± 0.02 s⁻¹, the T1obs [2, 5] was 1.16 ± 0.14 s and the ΔM/M0 [2, 5] was 0.15 ± 0.02.
